We go through 1 substance from paper PMC8225959 (Frontiers in Medicine, 2021).

A short description of the series: general procedure: Fmoc solid-phase peptide synthesis; rink amide resin (MBHA). Conditions: conjugation step.

Substance “D-Phe-Gln-Trp-Ala-Val-Gly-His-Sta-Leu-NH2” came in with a conjugation yield of 57%.
